Results deposited as PubChem BioAssay AID504764 (Drosophila RNAi Screening Center, 2011).

Purpose: 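Genes whose knock-down alters Notch-dependent transcription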 (primary screen)
Cell system: Drosophila Kc167 cells
Reagent: long dsRNA against Drosophila genes
Duration: about 5 days (4 days dsRNA, then 24 h after transfection)
Treatment: transfection of constitutively active membrane-tethered Notch lacking the extracellular domain, read 24 h later
Read-out: 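Firefly luciferase from an E(spl)m3 reporter with active Notch, plus control-promoter and uninduced reporter wells for normalisation; unnormalised counts, duplicate wells a and b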
Scale: induced reporter light, run 1, well a and induced reporter light, run 1, well b: higher = more light from the Notch target reporter with active Notch; control promoter light, run 1, well a and control promoter light, run 1, well b: higher = more light from the viral control promoter (cell number, transfection, viability); uninduced reporter light, run 1, well a: higher = more light from the Notch target reporter without active Notch
Active means: 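Hit if the duplicate-averaged log2 ratio of induced to control-promoter light gives a plate-wise z beyond ±2, or induced to uninduced beyond ±1.8; weak-control or discordant-duplicate wells dropped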
Calls: active = modifier hit (raised or lowered Notch signal); inactive = not a hit
The screen tested about 22,000 reagents; this is an unselected part of those with a known target gene and a result. Over the whole deposit, 403 (1.9%) are marked active. 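Unnormalised raw counts per well; ratio z-scores behind the hit calls and whether each hit raises or lowers signal are not deposited.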 Names joined by + are all predicted targets of the reagent. Not given: the amount of reagent.

no.	Gene	DRSC id	induced reporter light, run 1, well a	induced reporter light, run 1, well b	control promoter light, run 1, well a	control promoter light, run 1, well b	uninduced reporter light, run 1, well a	call
1	CG8507	DRSC16435	87105	1.07e5	1.13e5	75200	4650	inactive
2	Vha16-1 (Vacuolar H[+] ATPase 16kD subunit 1)	DRSC05020	1.63e5	1.24e5	1.60e5	1.47e5	8720	inactive
3	CG32720	DRSC17529	75010	66100	83340	67770	6235	inactive
4	Acp53C14a (Accessory gland protein 53C14a)	DRSC07224	72840	52715	53840	58150	6140	inactive
5	Hydr1 (alpha/beta hydrolase 1)	DRSC07063	1.40e5	1.41e5	2.37e5	2.38e5	12140	inactive
6	CG9951	DRSC11105	1.16e5	1.36e5	88125	1.02e5	12085	inactive
7	wrm1 (wurmchen 1)	DRSC11007	78385	97960	38665	16340	9390	inactive
8	CG42362 + CG42363	DRSC04265	2.45e5	2.28e5	2.00e5	2.27e5	15820	inactive
9	Lamtor1 (Late endosomal/lysosomal adaptor, MAPK and MTOR activator 1)	DRSC10183	1.53e5	1.31e5	1.16e5	97560	9450	inactive
10	Ric (Ras-related protein interacting with calmodulin)	DRSC07532	79165	61865	88000	72665	7345	inactive
11	mthl6 (methuselah-like 6)	DRSC10234	1.19e5	1.05e5	1.27e5	96800	6170	inactive
12	CG30037	DRSC07305	85950	89400	1.21e5	1.06e5	8805	inactive
13	Vha16-3 (Vacuolar H[+] ATPase 16kD subunit 3)	DRSC10872	1.71e5	1.69e5	2.78e5	2.86e5	11160	inactive
14	CG34278	DRSC13208	82020	1.01e5	1.26e5	1.55e5	7392	inactive
15	CG15035	DRSC17967	1.36e5	1.32e5	2.17e5	2.10e5	10420	inactive
16	CG14451	DRSC11708	94215	90010	97605	72005	5270	inactive
17	CG17260	DRSC00497	98440	81995	76465	96900	7235	inactive
18	TrpA1 (Transient receptor potential cation channel A1)	DRSC10544	1.61e5	1.45e5	1.68e5	2.05e5	13880	inactive
19	CG1924	DRSC19823	1.21e5	1.15e5	2.61e5	2.51e5	8085	inactive
20	ZnT33D (Zinc transporter 33D)	DRSC02591	1.54e5	1.69e5	1.54e5	1.75e5	12205	inactive
21	CG5697	DRSC15858	1.43e5	1.32e5	82405	82325	16510	inactive
22	Npc2a (Niemann-Pick type C-2a)	DRSC00698	99455	94005	95120	58085	8860	inactive
23	CG34345	DRSC02126	1.56e5	1.52e5	1.70e5	1.75e5	10765	inactive
24	CG4950	DRSC10463	2.11e5	2.25e5	2.66e5	2.75e5	12910	inactive
25	Icmt (Isoprenylcysteine carboxyl methyltransferase)	DRSC09834	1.83e5	1.63e5	2.20e5	1.88e5	9170	inactive
26	CG16894	DRSC06634	76335	86750	98240	73915	5228	inactive
27	CG16894	DRSC21785						inactive
28	mIF2 (mitochondrial translation initiation factor 2)	DRSC14510	1.07e5	99870	1.41e5	1.55e5	8780	inactive
29	CG30287	DRSC03875	1.08e5	99805	1.00e5	1.10e5	8730	inactive
30	Cog1 (Component of oligomeric golgi complex 1)	DRSC15661	1.37e5	1.19e5	91080	74515	10800	inactive
31	CD98hc (CD98 heavy chain)	DRSC15453	76875	1.02e5	1.01e5	76480	5960	inactive
32	CG12551 (retired record)	DRSC04857	1.44e5	1.25e5	1.54e5	1.61e5	9220	inactive
33	CG12551 (retired record)	DRSC04864	1.57e5	1.17e5	1.46e5	1.44e5	10660	inactive
34	Obp47a (Odorant-binding protein 47a)	DRSC06255	1.92e5	1.87e5	2.08e5	2.07e5	14750	inactive
35	CG10970	DRSC17772	1.79e5	1.66e5	2.37e5	1.88e5	12380	inactive
36	CG4563	DRSC04474	2.86e5	2.08e5	1.84e5	1.89e5	17825	inactive
37	CG10340	DRSC14232	2.10e5	2.26e5	2.79e5	3.36e5	17200	inactive
38	Rab4	DRSC07524	1.21e5	99920	2.04e5	2.95e5	9505	inactive

Limited to “control promoter light, run 1, well b” (7 entries from above):
CG42362 + CG42363 [DRSC04265]	2.27e5
Lamtor1 (Late endosomal/lysosomal adaptor, MAPK and MTOR activator 1) [DRSC10183]	97560
Ric (Ras-related protein interacting with calmodulin) [DRSC07532]	72665
mthl6 (methuselah-like 6) [DRSC10234]	96800
CG30037 [DRSC07305]	1.06e5
Vha16-3 (Vacuolar H[+] ATPase 16kD subunit 3) [DRSC10872]	2.86e5
CG34278 [DRSC13208]	1.55e5

Additional records:
no.	Gene	DRSC id	induced reporter light, run 1, well a	induced reporter light, run 1, well b	control promoter light, run 1, well a	control promoter light, run 1, well b	uninduced reporter light, run 1, well a	call
39	Gr58b (Gustatory receptor 58b)	DRSC04140	40835	43245	43170	30070	2540	inactive
40	Ndc80	DRSC20221	2.05e5	1.76e5	3.33e5	2.69e5	14570	inactive
41	Xrp1	DRSC15282	22135	19880	14638	12915	4335	inactive
42	Xrp1	DRSC15283	53150	43510	87015	91210	6445	inactive
43	cue (cueball)	DRSC08248	81950	85440	2.37e5	2.35e5	9888	active
44	Tmtc4 (Transmembrane O-mannosyltransferase targeting cadherins 4)	DRSC15702	1.87e5	1.93e5	2.19e5	2.39e5	18105	inactive
45	CG3860	DRSC04425	1.36e5	1.42e5	1.57e5	1.57e5	13030	inactive
46	lectin-46Cb	DRSC06611	1.71e5	1.58e5	2.12e5	2.08e5	18755	inactive
47	CG13920	DRSC08389	1.09e5	1.12e5	1.99e5	2.30e5	8340	inactive
48	amrt (amaretto)	DRSC19378	82560	70510	91130	90500	12230	inactive
49	CG31279	DRSC13158	97550	1.24e5	1.47e5	1.19e5	8705	inactive
50	Ttc26 (Tetratricopeptide repeat domain 26)	DRSC15591	1.60e5	1.57e5	2.40e5	2.78e5	14070	inactive
51	Ir7f (Ionotropic receptor 7f)	DRSC18012	1.59e5	1.39e5	3.02e5	3.06e5	11355	inactive
52	Cyp6a19 (Cytochrome P450 6a19)	DRSC07379	1.58e5	1.50e5	1.78e5	1.81e5	13120	inactive
53	ProtB (Protamine B)	DRSC03373	1.53e5	1.62e5	1.69e5	1.80e5	15770	inactive
54	Lsd-2 (Lipid storage droplet-2)	DRSC20143	1.70e5	1.71e5	2.16e5	1.60e5	10628	inactive
55	ana3 (anastral spindle 3)	DRSC06289	90775	98160	1.36e5	1.45e5	10030	inactive
56	CG42562	DRSC06453	90215	89430	1.10e5	1.38e5	7935	inactive
57	Ac76E (Adenylyl cyclase 76E)	DRSC09642	2.27e5	2.51e5	2.88e5	2.62e5	20832	inactive
58	Ac76E (Adenylyl cyclase 76E)	DRSC09662	1.10e5	1.09e5	61730	95680	9870	inactive
59	PpD5 (Protein phosphatase D5)	DRSC04641	49640	40870	59760	52715	4040	inactive
60	CG2256	DRSC18220	1.61e5	1.52e5	2.62e5	2.94e5	11188	inactive
61	Cen (Centrocortin)	DRSC02704	2.19e5	2.70e5	1.85e5	1.87e5	15405	inactive
62	CG17839	DRSC10290	1.71e5	1.82e5	2.56e5	2.12e5	11765	inactive
63	CG17839	DRSC10291	1.97e5	1.75e5	2.13e5	2.47e5	7850	inactive
64	CG15498	DRSC15040	1.70e5	1.59e5	2.00e5	2.00e5	10905	inactive
